Record: PubChem BioAssay AID602196 (INSERM, 2012)
Aim: 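Genes whose knock-down alters cisplatin killing of lung cancer cells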. Cell system: human A549 lung cancer cells. Knock-down reagent: siRNA pair against human genes. Duration: 48 h transfection before cisplatin; time from cisplatin to read-out not stated. Challenge: cisplatin at a dose killing half of control-siRNA cells; exact dose and duration not given. Read-out: 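Shift in cisplatin death relative to control siRNA, from -50 (all cells die) to +50 (no cells die); siRNAs harmful on their own scored 0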. Direction: two-siRNA summed score (-2 to +2): higher = both siRNAs protect from cisplatin killing; -2 means both sensitise. Call rule: 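Each siRNA scores 0 if harmful alone by LDH or WST-1, otherwise +1 if it reduces and -1 if it increases cisplatin killing; a gene is active when both siRNAs agree (sum +2 or -2)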. Calls: active = both siRNAs shift cisplatin killing the same way; inactive = no consistent shift, or siRNA harmful alone.
This is a random part of about 23,000 reagents. In the full data, 455 (2%) are marked active. 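Active includes both protection and sensitisation; some change values fall well beyond the stated -50 to +50 range.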 Not all columns of the deposit are shown. Not stated in the record: the amount of reagent.

{"gene": "FAM81B", "two-siRNA summed score (-2 to +2)": 0, "call": "inactive"}
{"gene": "LOC392337", "two-siRNA summed score (-2 to +2)": 0, "call": "inactive"}
{"gene": "LOC401612", "two-siRNA summed score (-2 to +2)": 0, "call": "inactive"}
{"gene": "LOC442209", "two-siRNA summed score (-2 to +2)": 0, "call": "inactive"}
{"gene": "ROCK1", "two-siRNA summed score (-2 to +2)": 1, "call": "inactive"}
{"gene": "UTP14C", "two-siRNA summed score (-2 to +2)": 1, "call": "inactive"}
{"gene": "PRXL2B", "two-siRNA summed score (-2 to +2)": 0, "call": "inactive"}
{"gene": "CCDC80", "two-siRNA summed score (-2 to +2)": 1, "call": "inactive"}
{"gene": "FGD1", "two-siRNA summed score (-2 to +2)": -1, "call": "inactive"}
{"gene": "COQ8A", "two-siRNA summed score (-2 to +2)": 0, "call": "inactive"}
{"gene": "MANBA", "two-siRNA summed score (-2 to +2)": 0, "call": "inactive"}
{"gene": "LOC401898", "two-siRNA summed score (-2 to +2)": 1, "call": "inactive"}
{"gene": "ZIC1", "two-siRNA summed score (-2 to +2)": 0, "call": "inactive"}
{"gene": "WDR37", "two-siRNA summed score (-2 to +2)": 0, "call": "inactive"}
{"gene": "SSR3", "two-siRNA summed score (-2 to +2)": -1, "call": "inactive"}
{"gene": "LINC01098", "two-siRNA summed score (-2 to +2)": 0, "call": "inactive"}
{"gene": "OR5B17", "two-siRNA summed score (-2 to +2)": 0, "call": "inactive"}
{"gene": "SLC37A3", "two-siRNA summed score (-2 to +2)": 0, "call": "inactive"}
{"gene": "RPL41", "two-siRNA summed score (-2 to +2)": 0, "call": "inactive"}
{"gene": "LOC391727", "two-siRNA summed score (-2 to +2)": 0, "call": "inactive"}
{"gene": "LOC442691", "two-siRNA summed score (-2 to +2)": 1, "call": "inactive"}
